Assay results from the supplement of paper PMC9015667.
This is one part of the list. Repeats are few or missing, and single values can be far off.

Key:
Test in all cases: reduction in cell viability relative to untreated/vehicle; higher = more growth inhibition
Conditions in all cases: 200 nM; 72 h
[1] = tested on: M229P (parental melanoma line)
[2] = tested on: M229R (matched melanoma line resistant to BRAF inhibitors)
[3] = tested on: M238P (parental melanoma line)
[4] = tested on: M238R (matched melanoma line resistant to BRAF inhibitors)
[5] = tested on: M249P (parental melanoma line)
[6] = tested on: M249R (matched melanoma line resistant to BRAF inhibitors)
[7] = tested on: UACC62P (parental melanoma line)
[8] = tested on: UACC62R (matched melanoma line resistant to BRAF inhibitors)

What does the source list for `CC1(C)CCC(c2ccc(Cl)cc2)=C(CN2CCN(c3ccc(C(=O)NS(=O)(=O)c4ccc(N[C@H](CCN5CCOCC5)CSc5ccccc5)c(S(=O)(=O)C(F)(F)F)c4)cc3)CC2)C1` [ABT-263 (Navitoclax)]?
reduction in cell viability [1]: < 0%; reduction in cell viability [2]: < 0%; reduction in cell viability [3]: < 0%; reduction in cell viability [4]: < 0%; reduction in cell viability [5]: < 0%; reduction in cell viability [6]: < 0%; reduction in cell viability [7]: < 0%; reduction in cell viability [8]: < 0%

With `CCCCC[C@H](O)/C=C/[C@H]1[C@H](O)CC(=O)[C@@H]1CCCCCCC(=O)O` [Alprostadil] as the compound, how does the “reduction in cell viability” value [1] read?
Its value is under 0%.

And the “reduction in cell viability” value [2]?
The value was under 0%.

What about the “reduction in cell viability” value [3] of the same compound?
The value was under 0%.

And the “reduction in cell viability” value [4]?
The value was under 0%.

And the “reduction in cell viability” value [5]?
Its value is under 0%.

What about the “reduction in cell viability” value [6] of the same compound?
The value was under 0%.

What about the “reduction in cell viability” value [7] of the same compound?
Its value is under 0%.

And the “reduction in cell viability” value [8]?
Its value is under 0%.

For `CC(/C=C/C(=O)NO)=C\[C@@H](C)C(=O)c1ccc(N(C)C)cc1` [Trichostatin A], which “reduction in cell viability” value [1] is on record?
Its value is 73.4%.

And the “reduction in cell viability” value [2]?
The value was 27%.

And the “reduction in cell viability” value [3]?
Its value is 48.2%.

And the “reduction in cell viability” value [4]?
Its value is 33.4%.

And the “reduction in cell viability” value [5]?
Its value is 55.4%.

And the “reduction in cell viability” value [6]?
Its value is 55.9%.

And the “reduction in cell viability” value [7]?
Its value is 75.2%.

And the “reduction in cell viability” value [8]?
The value was 78.8%.

Which “reduction in cell viability” value [1] does the source give for `O=C(O)Cn1nnc(-c2cc(N3CCC(Oc4cc(F)ccc4Br)CC3)no2)n1` here?
The value was under 0%.

And the “reduction in cell viability” value [2]?
The value was under 0%.

What about the “reduction in cell viability” value [3] of the same compound?
The value was under 0%.

And the “reduction in cell viability” value [4]?
The value was under 0%.

What about the “reduction in cell viability” value [5] of the same compound?
The value was under 0%.

And the “reduction in cell viability” value [6]?
The value was under 0%.

And the “reduction in cell viability” value [7]?
The value was under 0%.

And the “reduction in cell viability” value [8]?
The value was under 0%.

`O=c1oc2c(O)c(O)cc3c(=O)oc4c(O)c(O)cc1c4c23` [Ellagic acid] was tested. Which “reduction in cell viability” value [1] did it give?
The value was under 0%.

What about the “reduction in cell viability” value [2] of the same compound?
The value was under 0%.

What about the “reduction in cell viability” value [3] of the same compound?
Its value is under 0%.

What about the “reduction in cell viability” value [4] of the same compound?
The value was under 0%.

What about the “reduction in cell viability” value [5] of the same compound?
The value was under 0%.

And the “reduction in cell viability” value [6]?
The value was under 0%.

And the “reduction in cell viability” value [7]?
The value was under 0%.

What about the “reduction in cell viability” value [8] of the same compound?
Its value is under 0%.

Which results are given for `Cc1nnc(C(=O)NC(C)(C)c2nc(C(=O)NCc3ccc(F)cc3)c(O)c(=O)n2C)o1` [Raltegravir]?
reduction in cell viability [1]: < 0%; reduction in cell viability [2]: < 0%; reduction in cell viability [3]: < 0%; reduction in cell viability [4]: < 0%; reduction in cell viability [5]: < 0%; reduction in cell viability [6]: < 0%; reduction in cell viability [7]: < 0%; reduction in cell viability [8]: < 0%

What does the source list for `CN(C)c1nc(N(C)C)nc(N(C)C)n1` [Altretamine]?
reduction in cell viability [1]: < 0%; reduction in cell viability [2]: < 0%; reduction in cell viability [3]: < 0%; reduction in cell viability [4]: < 0%; reduction in cell viability [5]: < 0%; reduction in cell viability [6]: < 0%; reduction in cell viability [7]: < 0%; reduction in cell viability [8]: < 0%

Which “reduction in cell viability” value [1] does the source give for `C=C1CC[C@@H]2[C@](C)(CO)[C@H](O)CC[C@@]2(C)[C@@H]1C/C=C1/C(=O)OC[C@H]1O` [Andrographolide] here?
The value was under 0%.

What about the “reduction in cell viability” value [2] of the same compound?
The value was under 0%.

What about the “reduction in cell viability” value [3] of the same compound?
The value was under 0%.

And the “reduction in cell viability” value [4]?
Its value is under 0%.

What about the “reduction in cell viability” value [5] of the same compound?
The value was under 0%.

What about the “reduction in cell viability” value [6] of the same compound?
The value was under 0%.

What about the “reduction in cell viability” value [7] of the same compound?
The value was under 0%.

What about the “reduction in cell viability” value [8] of the same compound?
The value was under 0%.

Which “reduction in cell viability” value [1] does the source give for `COc1ccc2c(c1OC)C(=O)O[C@@H]2[C@H]1c2c(cc3c(c2OC)OCO3)CCN1C` [Noscapine] here?
Its value is under 0%.

And the “reduction in cell viability” value [2]?
The value was under 0%.

And the “reduction in cell viability” value [3]?
Its value is under 0%.

What about the “reduction in cell viability” value [4] of the same compound?
Its value is under 0%.

What about the “reduction in cell viability” value [5] of the same compound?
Its value is under 0%.

What about the “reduction in cell viability” value [6] of the same compound?
The value was under 0%.

And the “reduction in cell viability” value [7]?
Its value is 20.6%.

And the “reduction in cell viability” value [8]?
The value was under 0%.

Which results are given for `COc1ccc(OC)c(-c2nnc3ccc(-c4ccc(OC)c(O[C@@H]5CCOC5)c4)nn23)c1`?
reduction in cell viability [1]: 5.77%; reduction in cell viability [2]: < 0%; reduction in cell viability [3]: < 0%; reduction in cell viability [4]: < 0%; reduction in cell viability [5]: < 0%; reduction in cell viability [6]: 3.79%; reduction in cell viability [7]: 16.2%; reduction in cell viability [8]: 18.6%

Which “reduction in cell viability” value [1] does the source give for `O=C(Nc1cccc(Nc2ncc(Br)c(NCCc3cnc[nH]3)n2)c1)N1CCCC1` here?
Its value is under 0%.

What about the “reduction in cell viability” value [2] of the same compound?
The value was under 0%.

And the “reduction in cell viability” value [3]?
The value was 3.52%.

And the “reduction in cell viability” value [4]?
Its value is under 0%.

What about the “reduction in cell viability” value [5] of the same compound?
The value was under 0%.

What about the “reduction in cell viability” value [6] of the same compound?
Its value is 13.7%.

What about the “reduction in cell viability” value [7] of the same compound?
Its value is 10.1%.

What about the “reduction in cell viability” value [8] of the same compound?
Its value is under 0%.

What does the source list for `CN(C)c1ccc(O)c2c1C[C@H]1C[C@H]3[C@H](N(C)C)C(O)=C(C(N)=O)C(=O)[C@@]3(O)C(O)=C1C2=O` [Minocycline]?
reduction in cell viability [1]: < 0%; reduction in cell viability [2]: < 0%; reduction in cell viability [3]: < 0%; reduction in cell viability [4]: < 0%; reduction in cell viability [5]: 2.67%; reduction in cell viability [6]: < 0%; reduction in cell viability [7]: 22.3%; reduction in cell viability [8]: < 0%

Which results are given for `CCn1c(-c2nonc2N)nc2cncc(CNC3CCNCC3)c21`?
reduction in cell viability [1]: < 0%; reduction in cell viability [2]: < 0%; reduction in cell viability [3]: < 0%; reduction in cell viability [4]: < 0%; reduction in cell viability [5]: < 0%; reduction in cell viability [6]: < 0%; reduction in cell viability [7]: 3.53%; reduction in cell viability [8]: 3.79%

Which results are given for `COc1ccc(COc2cc3oc(=O)c4cc(C(C)O)ccc4c3cc2OC)cc1` (stereo not given)?
reduction in cell viability [1]: < 0%; reduction in cell viability [2]: < 0%; reduction in cell viability [3]: < 0%; reduction in cell viability [4]: < 0%; reduction in cell viability [5]: < 0%; reduction in cell viability [6]: < 0%; reduction in cell viability [7]: 6.03%; reduction in cell viability [8]: < 0%

How did the “reduction in cell viability” value [1] turn out when `CCCCCN(CCC12CC3CC(CC(C3)C1)C2)C(=O)NCCCc1ccncc1` was run?
The value was under 0%.

And the “reduction in cell viability” value [2]?
The value was under 0%.

And the “reduction in cell viability” value [3]?
The value was under 0%.

What about the “reduction in cell viability” value [4] of the same compound?
The value was under 0%.

And the “reduction in cell viability” value [5]?
The value was under 0%.

And the “reduction in cell viability” value [6]?
The value was under 0%.

And the “reduction in cell viability” value [7]?
Its value is under 0%.

What about the “reduction in cell viability” value [8] of the same compound?
Its value is under 0%.

What does the source list for `C[C@@H]1CC(=O)NN=C1c1ccc(NN=C(C#N)C#N)cc1` [Levosimendan]?
reduction in cell viability [1]: < 0%; reduction in cell viability [2]: < 0%; reduction in cell viability [3]: < 0%; reduction in cell viability [4]: 0.64%; reduction in cell viability [5]: < 0%; reduction in cell viability [6]: 10.1%; reduction in cell viability [7]: < 0%; reduction in cell viability [8]: < 0%

Which “reduction in cell viability” value [1] does the source give for `CCc1ccc(/C=C2/SC(=S)NC2=O)cc1` here?
Its value is under 0%.

And the “reduction in cell viability” value [2]?
The value was under 0%.

And the “reduction in cell viability” value [3]?
The value was under 0%.

What about the “reduction in cell viability” value [4] of the same compound?
The value was under 0%.

What about the “reduction in cell viability” value [5] of the same compound?
The value was under 0%.

What about the “reduction in cell viability” value [6] of the same compound?
Its value is under 0%.

What about the “reduction in cell viability” value [7] of the same compound?
Its value is under 0%.

What about the “reduction in cell viability” value [8] of the same compound?
Its value is under 0%.

For `CC(C)=CC[C@@H](O)C1=CC(=O)c2c(O)ccc(O)c2C1=O` [Shikonin], which “reduction in cell viability” value [1] is on record?
Its value is under 0%.

What about the “reduction in cell viability” value [2] of the same compound?
The value was under 0%.

And the “reduction in cell viability” value [3]?
Its value is under 0%.

What about the “reduction in cell viability” value [4] of the same compound?
Its value is under 0%.

What about the “reduction in cell viability” value [5] of the same compound?
The value was under 0%.

And the “reduction in cell viability” value [6]?
Its value is under 0%.

What about the “reduction in cell viability” value [7] of the same compound?
Its value is 1.91%.

What about the “reduction in cell viability” value [8] of the same compound?
Its value is under 0%.

What does the source list for `Cc1cnc(CNC(=O)c2c(=O)c3ccc(N4CCCN(C)CC4)nc3n3c2sc2ccccc23)cn1`?
reduction in cell viability [1]: < 0%; reduction in cell viability [2]: 13%; reduction in cell viability [3]: 0.33%; reduction in cell viability [4]: < 0%; reduction in cell viability [5]: < 0%; reduction in cell viability [6]: 4.04%; reduction in cell viability [7]: 2.41%; reduction in cell viability [8]: 16.3%

`Cc1ncc(-c2ccnc(Nc3ccc(S(C)(=O)=O)cc3)n2)n1C(C)C` was tested. Which “reduction in cell viability” value [1] did it give?
Its value is under 0%.

And the “reduction in cell viability” value [2]?
Its value is under 0%.

And the “reduction in cell viability” value [3]?
The value was under 0%.

And the “reduction in cell viability” value [4]?
The value was under 0%.

What about the “reduction in cell viability” value [5] of the same compound?
Its value is under 0%.

What about the “reduction in cell viability” value [6] of the same compound?
The value was under 0%.

What about the “reduction in cell viability” value [7] of the same compound?
The value was under 0%.

What about the “reduction in cell viability” value [8] of the same compound?
The value was under 0%.
